These results are taken from publication PMC8657445.

Results are given in words; binding and its absence hold for the method and conditions named. Binding seen in cells or lysates may run through a third protein. Some entries that bind do so weakly or less than the wild type. Where a sequence is shown, tags or fusion partners need not be part of it.

Assay [1] addresses T1, AtPII-nYFP (Arabidopsis thaliana), Q9ZST4.
T1 chain: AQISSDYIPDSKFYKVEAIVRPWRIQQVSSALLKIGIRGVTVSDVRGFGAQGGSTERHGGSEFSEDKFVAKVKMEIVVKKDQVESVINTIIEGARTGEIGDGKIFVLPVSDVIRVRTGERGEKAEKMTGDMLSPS
Kind of assay: split reporter; BiFC with nYFP and cYFP fusions from one 2in1 pBiFC vector under p35S; N. benthamiana leaves three days after transient transformation; internal RFP as transformation control. The settings on record: remark: other sources report otherwise.

Assay [2] concerns the target T2, AtPII-GFP (Arabidopsis thaliana), Q9ZST4.
T2 chain: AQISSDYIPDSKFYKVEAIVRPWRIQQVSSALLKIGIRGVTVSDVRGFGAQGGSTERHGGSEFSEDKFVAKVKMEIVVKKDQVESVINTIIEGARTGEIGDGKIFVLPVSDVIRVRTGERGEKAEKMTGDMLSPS
Description: FRET or BRET; FRET/FLIM: GFP donor lifetime of co-localising GFP and mCherry signals against AtPII-GFP alone; 2in1 pFRET vectors under p35S; transiently transformed N. benthamiana leaf disks, plastids in the epidermis. The note with it: remark: other sources report otherwise. Background: BRET reads energy transfer from a luciferase to a nearby fluorophore.

For assay [3], the target named is T3, AtPII-GFP (Arabidopsis thaliana) (UniProt Q9ZST4).
T3 sequence: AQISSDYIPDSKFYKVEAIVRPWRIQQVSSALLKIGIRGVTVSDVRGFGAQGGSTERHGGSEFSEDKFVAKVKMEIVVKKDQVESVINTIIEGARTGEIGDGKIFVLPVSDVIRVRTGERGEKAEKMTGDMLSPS
The description is as above.

Assay [4] concerns the target T3, AtPII-GFP (Arabidopsis thaliana). Kind of assay: co-IP; GFP-tagged proteins isolated with GFP traps from protein extracts of co-infiltrated tobacco leaves; co-eluted mCherry-tagged proteins detected by Western blot with an anti-RFP antibody.
In assay [5] the target is T4, AtPII-nYFP (Arabidopsis thaliana) (UniProt Q9ZST4).
T4 sequence: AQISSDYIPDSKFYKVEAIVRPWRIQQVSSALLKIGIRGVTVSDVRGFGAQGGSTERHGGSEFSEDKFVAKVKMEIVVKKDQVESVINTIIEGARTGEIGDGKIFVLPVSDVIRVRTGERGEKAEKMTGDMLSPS
Description: split reporter; BiFC with nYFP and cYFP fusions from one 2in1 pBiFC vector under p35S; N. benthamiana leaves three days after transient transformation; internal RFP as transformation control.

B1: AtBCCP1-cYFP, Q42533 83-280 (protein)
chain: SAEGKEKNSLKESSASSPELATEESISEFLTQVTTLVKLVDSRDIVELQLKQLDCELVIRKKEALPQPQAPASYVMMQQPNQPSYAQQMAPPAAPAAAAPAPSTPASLPPPSPPTPAKSSLPTVKSPMAGTFYRSPAPGEPPFIKVGDKVQKGQVLCIVEAMKLMNEIESDHTGTVVDIVAEDGKPVSLDTPLFVVQP
With B1, the binding entry in assay [1] is reported as “binds”.

B2: AtBCCP1-mCherry, Q42533 83-280 (protein)
chain: SAEGKEKNSLKESSASSPELATEESISEFLTQVTTLVKLVDSRDIVELQLKQLDCELVIRKKEALPQPQAPASYVMMQQPNQPSYAQQMAPPAAPAAAAPAPSTPASLPPPSPPTPAKSSLPTVKSPMAGTFYRSPAPGEPPFIKVGDKVQKGQVLCIVEAMKLMNEIESDHTGTVVDIVAEDGKPVSLDTPLFVVQP
On to B2, for which the binding result in assay [2] is recorded as “binds”.

B3: AtDXS-mCherry (enzyme, UniProt Q38854 59-717)
chain: ASLAEKGEYYSNRPPTPLLDTINYPIHMKNLSVKELKQLSDELRSDVIFNVSKTGGHLGSSLGVVELTVALHYIFNTPQDKILWDVGHQSYPHKILTGRRGKMPTMRQTNGLSGFTKRGESEHDCFGTGHSSTTISAGLGMAVGRDLKGKNNNVVAVIGDGAMTAGQAYEAMNNAGYLDSDMIVILNDNKQVSLPTATLDGPSPPVGALSSALSRLQSNPALRELREVAKGMTKQIGGPMHQLAAKVDEYARGMISGTGSSLFEELGLYYIGPVDGHNIDDLVAILKEVKSTRTTGPVLIHVVTEKGRGYPYAERADDKYHGVVKFDPATGRQFKTTNKTQSYTTYFAEALVAEAEVDKDVVAIHAAMGGGTGLNLFQRRFPTRCFDVGIAEQHAVTFAAGLACEGLKPFCAIYSSFMQRAYDQVVHDVDLQKLPVRFAMDRAGLVGADGPTHCGAFDVTFMACLPNMIVMAPSDEADLFNMVATAVAIDDRPSCFRYPRGNGIGVALPPGNKGVPIEIGKGRILKEGERVALLGYGSAVQSCLGAAVMLEERGLNVTVADARFCKPLDRALIRSLAKSHEVLITVEEGSIGGFGSHVVQFLALDGLLDGKLKWRPMVLPDRYIDHGAPADQLAEAGLMPSHIAATALNLIGAPREALF
As to B3, in assay [3], the binding entry is “binds”.

B4: AtNAGK-mCherry (enzyme, UniProt Q9SCL7 51-347)
chain: TVSTPPSIATGNAPSPDYRVEILSESLPFIQKFRGKTIVVKYGGAAMTSPELKSSVVSDLVLLACVGLRPILVHGGGPDINRYLKQLNIPAEFRDGLRVTDATTMEIVSMVLVGKVNKNLVSLINAAGATAVGLSGHDGRLLTARPVPNSAQLGFVGEVARVDPSVLRPLVDYGYIPVIASVAADDSGQAYNINADTVAGELAAALGAEKLILLTDVAGILENKEDPSSLIKEIDIKGVKKMIEDGKVAGGMIPKVKCCIRSLAQGVKTASIIDGRRQHSLLHEIMSDEGAGTMITG
In the case of B4, the binding result in assay [4] and in assay [3] was “binds” each time.

B5: AtNAGK-cYFP (enzyme, UniProt Q9SCL7 51-347)
chain: TVSTPPSIATGNAPSPDYRVEILSESLPFIQKFRGKTIVVKYGGAAMTSPELKSSVVSDLVLLACVGLRPILVHGGGPDINRYLKQLNIPAEFRDGLRVTDATTMEIVSMVLVGKVNKNLVSLINAAGATAVGLSGHDGRLLTARPVPNSAQLGFVGEVARVDPSVLRPLVDYGYIPVIASVAADDSGQAYNINADTVAGELAAALGAEKLILLTDVAGILENKEDPSSLIKEIDIKGVKKMIEDGKVAGGMIPKVKCCIRSLAQGVKTASIIDGRRQHSLLHEIMSDEGAGTMITG
For B5, in assay [5], the binding result is reported as “binds”.

B6: AtPII-nYFP (protein, UniProt Q9ZST4 62-196)
chain: AQISSDYIPDSKFYKVEAIVRPWRIQQVSSALLKIGIRGVTVSDVRGFGAQGGSTERHGGSEFSEDKFVAKVKMEIVVKKDQVESVINTIIEGARTGEIGDGKIFVLPVSDVIRVRTGERGEKAEKMTGDMLSPS
Take B6: the binding result in assay [5] is on record as “binds”.

B7: AtPII-GFP (protein, UniProt Q9ZST4 62-196)
chain: AQISSDYIPDSKFYKVEAIVRPWRIQQVSSALLKIGIRGVTVSDVRGFGAQGGSTERHGGSEFSEDKFVAKVKMEIVVKKDQVESVINTIIEGARTGEIGDGKIFVLPVSDVIRVRTGERGEKAEKMTGDMLSPS
For B7, the binding entry in assay [4] and in assay [3] was “binds” throughout.
